# Values from PubChem BioAssay AID686938 (Drosophila RNAi Screening Center, 2013).
# Screen: 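Fly genes required for calcium entry once internal stores are emptied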 (primary screen)
# Cells: Drosophila S2R+ cells
# Reagents: long dsRNA against Drosophila genes, about 0.25 µg dsRNA per well, roughly 10,000 cells
# Duration: 5 days of knock-down before the calcium assay
# Challenge: thapsigargin (SERCA pump blocker) to empty calcium stores; entry signal taken 4 min after adding it
# Read-out: 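Duplicate raw fluo-4 intensities per well from a plate reader, at rest and four minutes after thapsigargin emptied calcium stores; entry-to-rest ratio filled for only some wells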
# Direction: calcium entry signal: higher = stronger calcium signal after store depletion; resting calcium signal: higher = higher resting calcium signal
# Hit rule: 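Called when the plate z-score of the entry-to-rest ratio, mean of duplicates, falls below −3; wells with low overall dye signal (Fmax z below −2) or more than five off-targets excluded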
# Calls: active = strongly reduced calcium entry; inactive = no strong reduction
# The screen tested about 23,000 reagents; below is a random part of those with a known target gene and a result. Over the whole deposit, 75 (0.33%) are marked active. 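Raw plate signals without normalisation; calls rest on plate z-scores that were not deposited; ratio present for only 364 wells.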 Entries without a mark were called inactive. A plus sign joins genes that one reagent is predicted to hit. No sequences are given here. Not given: the dose of the treatment.
gene knocked down,amplicon,"calcium entry signal, replicate 1 (fluorescence units)","calcium entry signal, replicate 2 (fluorescence units)","resting calcium signal, replicate 1 (fluorescence units)","resting calcium signal, replicate 2 (fluorescence units)"
e (ebony),DRSC16936,4.54e7,3.84e7,2.29e7,1.77e7
Ir48a (Ionotropic receptor 48a),DRSC05301,4.07e7,5.13e7,2.17e7,2.21e7
CG18666,DRSC02694,4.15e7,6.56e7,1.89e7,2.75e7
FASN1 (Fatty acid synthase 1),DRSC00268,2.33e7,,1.83e7,
tsl (torso-like),DRSC17090,3.25e7,4.09e7,4.28e7,1.87e7
CG13869 + CG11099,DRSC06428,5.60e7,6.57e7,2.64e7,3.03e7
CG6567,DRSC16066,4.06e7,3.50e7,2.02e7,1.83e7
CG30280,DRSC21761,3.34e7,2.94e7,2.01e7,1.52e7
loqs (loquacious),DRSC02997,3.35e7,2.16e7,1.57e7,1.07e7
Lmpt (Limpet),DRSC09450,4.50e7,3.90e7,1.98e7,1.91e7
Lmpt (Limpet),DRSC09864,4.48e7,6.34e7,2.08e7,2.42e7
Lmpt (Limpet),DRSC09865,2.28e7,3.26e7,1.12e7,2.22e7
Lmpt (Limpet),DRSC09866,4.56e7,6.93e7,2.24e7,2.67e7
Lmpt (Limpet),DRSC11107,3.84e7,6.59e7,1.83e7,2.56e7
Lmpt (Limpet),DRSC21738,3.27e7,3.46e7,1.71e7,1.63e7
Lmpt (Limpet),DRSC22921,3.00e7,4.28e7,1.50e7,1.73e7
Gprk2 (G protein-coupled receptor kinase 2),DRSC16682,1.74e7,2.36e7,8.80e6,1.18e7
Gprk2 (G protein-coupled receptor kinase 2),DRSC23336,3.48e7,4.03e7,1.80e7,1.71e7
CG8319,DRSC16407,3.52e7,3.56e7,1.77e7,1.97e7
Sirt2 (Sirtuin 2),DRSC15714,3.23e7,4.97e7,5.38e7,2.20e7
CG6696,DRSC20004,4.38e7,4.14e7,1.92e7,1.57e7

Next part, starting with the last 6 of the part before.
gene knocked down,amplicon,"calcium entry signal, replicate 1 (fluorescence units)","calcium entry signal, replicate 2 (fluorescence units)","resting calcium signal, replicate 1 (fluorescence units)","resting calcium signal, replicate 2 (fluorescence units)"
Lmpt (Limpet),DRSC22921,3.00e7,4.28e7,1.50e7,1.73e7
Gprk2 (G protein-coupled receptor kinase 2),DRSC16682,1.74e7,2.36e7,8.80e6,1.18e7
Gprk2 (G protein-coupled receptor kinase 2),DRSC23336,3.48e7,4.03e7,1.80e7,1.71e7
CG8319,DRSC16407,3.52e7,3.56e7,1.77e7,1.97e7
Sirt2 (Sirtuin 2),DRSC15714,3.23e7,4.97e7,5.38e7,2.20e7
CG6696,DRSC20004,4.38e7,4.14e7,1.92e7,1.57e7
Nepl8 (Neprilysin-like 8),DRSC02759,5.02e7,2.95e7,2.25e7,1.51e7
CG1504,DRSC20513,4.84e7,3.81e7,2.36e7,1.75e7
CG8620,DRSC11020,1.96e7,3.50e7,1.07e7,1.65e7
hob (hobbit),DRSC08426,3.48e7,2.32e7,2.49e7,1.04e7
CG11322,DRSC02142,4.32e7,3.16e7,1.95e7,1.51e7
CG15186,DRSC12566,5.43e7,3.87e7,2.48e7,1.85e7
CG7655,DRSC16275,5.09e7,3.90e7,2.48e7,1.72e7
CG42685,DRSC01971,5.18e7,5.82e7,2.10e7,2.52e7
CG43092,DRSC13572,5.33e7,3.49e7,2.46e7,1.74e7
PSMG1 (Proteasome assembly chaperone 1),DRSC12297,3.61e7,4.30e7,1.53e7,1.92e7
asRNA:CR43299 + CG8119,DRSC20083,2.99e7,3.62e7,1.61e7,1.55e7
Mics1 (Mitochondrial morphology and cristae structure 1),DRSC12537,4.12e7,3.17e7,1.88e7,1.65e7
Hsp67Bc (Heat shock gene 67Bc),DRSC11193,2.09e7,3.45e7,1.18e7,1.44e7
CG30265,DRSC21592,2.89e7,3.05e7,1.39e7,1.33e7
CG13833,DRSC14683,5.32e7,5.00e7,2.45e7,2.02e7
CG9664,DRSC00725,4.32e7,,2.47e7,
Tengl2 (Testis EndoG-Like 2),DRSC21968,3.61e7,4.35e7,1.68e7,2.14e7
Nadsyn (NAD synthetase),DRSC20222,3.47e7,3.71e7,1.65e7,2.04e7
comm3,DRSC09993,4.79e7,5.75e7,2.10e7,2.42e7
comm3,DRSC09994,4.33e7,5.90e7,1.94e7,2.48e7
comm3,DRSC09995,5.20e7,6.10e7,2.11e7,2.39e7
